# The other results are listed elsewhere or left out. The list holds hits alone, and they repeat only in part.
# Chains of the proteins cited; added tags and fusions are not shown.
# MORF4L1, Q9UBU8, UniProt Q9UBU8, whole entry: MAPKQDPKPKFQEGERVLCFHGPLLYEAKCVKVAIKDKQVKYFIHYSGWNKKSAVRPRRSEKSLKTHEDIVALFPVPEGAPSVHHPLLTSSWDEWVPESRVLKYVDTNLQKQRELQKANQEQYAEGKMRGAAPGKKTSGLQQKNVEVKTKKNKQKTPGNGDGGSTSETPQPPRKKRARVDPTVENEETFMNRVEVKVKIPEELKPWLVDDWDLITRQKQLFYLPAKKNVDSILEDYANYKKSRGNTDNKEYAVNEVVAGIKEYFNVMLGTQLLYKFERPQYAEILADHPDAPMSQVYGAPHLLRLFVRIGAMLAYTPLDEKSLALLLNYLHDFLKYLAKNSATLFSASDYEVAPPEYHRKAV
# MORF4L2, Q15014, UniProt Q15014, whole entry: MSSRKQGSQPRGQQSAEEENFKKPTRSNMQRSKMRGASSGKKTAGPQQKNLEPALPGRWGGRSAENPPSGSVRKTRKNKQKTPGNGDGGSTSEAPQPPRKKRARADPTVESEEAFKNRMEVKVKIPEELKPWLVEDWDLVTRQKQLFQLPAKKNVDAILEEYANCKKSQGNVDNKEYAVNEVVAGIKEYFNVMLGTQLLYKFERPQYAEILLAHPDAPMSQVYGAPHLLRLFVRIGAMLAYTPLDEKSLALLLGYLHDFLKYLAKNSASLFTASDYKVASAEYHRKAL
# PLK1, P53350, UniProt P53350, whole entry: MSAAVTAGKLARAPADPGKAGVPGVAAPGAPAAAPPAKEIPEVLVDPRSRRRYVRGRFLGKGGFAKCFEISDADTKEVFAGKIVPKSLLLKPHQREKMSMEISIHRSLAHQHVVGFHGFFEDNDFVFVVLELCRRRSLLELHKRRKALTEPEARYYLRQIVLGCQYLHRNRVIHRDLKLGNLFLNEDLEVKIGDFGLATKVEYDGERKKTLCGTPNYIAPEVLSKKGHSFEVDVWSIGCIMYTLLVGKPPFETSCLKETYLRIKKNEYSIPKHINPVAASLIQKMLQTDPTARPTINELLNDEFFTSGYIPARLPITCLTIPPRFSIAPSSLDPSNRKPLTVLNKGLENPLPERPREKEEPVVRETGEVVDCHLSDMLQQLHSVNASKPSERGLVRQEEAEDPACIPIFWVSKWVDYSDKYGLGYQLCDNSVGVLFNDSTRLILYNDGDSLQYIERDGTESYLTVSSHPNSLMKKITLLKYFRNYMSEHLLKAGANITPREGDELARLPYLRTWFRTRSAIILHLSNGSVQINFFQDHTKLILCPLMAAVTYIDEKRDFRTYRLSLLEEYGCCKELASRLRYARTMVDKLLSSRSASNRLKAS
# How the values were obtained:
# Assay in all cases: PRISMA enrichment of interactor (LFQ) in peptide spot vs all other peptide spots (log2 fold change); higher = stronger / more specific binding of the interactor to the peptide
# [1] = biological target: LETMD1, Q6P1Q0
# Experimental: (§1)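 PRISMA: 15-aa overlapping tiles (offset 8 aa) of 60 microproteins, plus SOS1/GLUT1 control peptides, were spot-synthesized on cellulose membranes in triplicate. Membranes were incubated with benzonase-treated HEK293T lysate, and bound proteins were identified by LC-MS/MS with LFQ. Enrichment is the log2 fold change of each protein in one spot versus all other spots. Only interactors passing the significance cutoff are listed.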
# [2] = biological target: LYRM2, Q9NU23
# Experimental: as §1
# [3] = biological target: MAP7D1, Q3KQU3
# Experimental: as §1
# [4] = biological target: MAZ, P56270
# Experimental: as §1
# [5] = biological target: MORF4L1, Q9UBU8
# Experimental: as §1
# [6] = biological target: MORF4L2, Q15014
# Experimental: as §1
# [7] = biological target: MRPL27, Q9P0M9
# Experimental: as §1
# [8] = biological target: NCBP2AS2, Q69YL0
# Experimental: as §1
# [9] = biological target: NECAP2, Q9NVZ3
# Experimental: as §1
# [10] = biological target: NIFK, Q9BYG3
# Experimental: as §1
# [11] = biological target: NOL12, Q9UGY1
# Experimental: as §1
# [12] = biological target: NOL7, Q9UMY1
# Experimental: as §1
# [13] = biological target: PCLAF, Q15004
# Experimental: as §1
# [14] = biological target: PLK1, P53350
# Experimental: as §1
# [15] = substrate: PPIF, P30405
# Experimental: as §1
# [16] = biological target: PUM3, Q15397
# Experimental: as §1
# [17] = biological target: PYCR1, P32322
# Experimental: as §1
# [18] = biological target: PYCR2, Q96C36
# Experimental: as §1
# [19] = biological target: RBIS, Q8N0T1
# Experimental: as §1
# [20] = biological target: RBMX, P38159
# Experimental: as §1
# [21] = biological target: REPIN1, Q9BWE0
# Experimental: as §1
# [22] = biological target: RPGRIP1L, Q68CZ1
# Experimental: as §1
# [23] = biological target: RPL39P5, Q59GN2
# Experimental: as §1
# [24] = biological target: RPS19BP1, Q86WX3
# Experimental: as §1
# [25] = biological target: SERF2, P84101
# Experimental: as §1
# [26] = biological target: SRP14, P37108
# Experimental: as §1
# [27] = biological target: TFAM, Q00059
# Experimental: as §1
# [28] = biological target: TMA16, Q96EY4
# Experimental: as §1
# [29] = biological target: TXLNA, P40222
# Experimental: as §1
# [30] = biological target: TXLNG, Q9NUQ3
# Experimental: as §1
# [31] = biological target: UTP11, Q9Y3A2
# Experimental: as §1
# [32] = biological target: UTP23, Q9BRU9
# Experimental: as §1
# [33] = biological target: ZNF22, P17026
# Experimental: as §1
# [34] = biological target: ZNF48, Q96MX3
# Experimental: as §1
# [35] = biological target: ZNF483, Q8TF39
# Experimental: as §1
# [36] = biological target: ZNF512, Q96ME7
# Experimental: as §1
# [37] = biological target: ZNF593, O00488
# Experimental: as §1
# [38] = biological target: hCG_2014768
# Experimental: as §1
binder,measurement,setting,value
KDVFEELLSQWDAAL [RP11-140K17.3],PRISMA enrichment of interactor (log2),[1],4.1
same,PRISMA enrichment of interactor (log2),[2],3.85
same,PRISMA enrichment of interactor (log2),[3],5.29
same,PRISMA enrichment of interactor (log2),[4],4.51
same,PRISMA enrichment of interactor (log2),[5],4.83
same,PRISMA enrichment of interactor (log2),[6],6.01
same,PRISMA enrichment of interactor (log2),[7],8.54
same,PRISMA enrichment of interactor (log2),[8],3.75
same,PRISMA enrichment of interactor (log2),[9],4.39
same,PRISMA enrichment of interactor (log2),[10],5.56
same,PRISMA enrichment of interactor (log2),[11],5.39
same,PRISMA enrichment of interactor (log2),[12],6
same,PRISMA enrichment of interactor (log2),[13],4.54
same,PRISMA enrichment of interactor (log2),[14],4.76
same,PRISMA enrichment of interactor (log2),[15],5.16
same,PRISMA enrichment of interactor (log2),[16],4.79
same,PRISMA enrichment of interactor (log2),[17],5.73
same,PRISMA enrichment of interactor (log2),[18],4.7
same,PRISMA enrichment of interactor (log2),[19],4.48
same,PRISMA enrichment of interactor (log2),[20],4.74
same,PRISMA enrichment of interactor (log2),[21],4.56
same,PRISMA enrichment of interactor (log2),[22],5.39
same,PRISMA enrichment of interactor (log2),[23],4.75
same,PRISMA enrichment of interactor (log2),[24],5.39
same,PRISMA enrichment of interactor (log2),[25],6.42
same,PRISMA enrichment of interactor (log2),[26],5.38
same,PRISMA enrichment of interactor (log2),[27],4.77
same,PRISMA enrichment of interactor (log2),[28],5.09
same,PRISMA enrichment of interactor (log2),[29],6.27
same,PRISMA enrichment of interactor (log2),[30],6.18
same,PRISMA enrichment of interactor (log2),[31],5.32
same,PRISMA enrichment of interactor (log2),[32],5.72
same,PRISMA enrichment of interactor (log2),[33],4.7
same,PRISMA enrichment of interactor (log2),[34],3.92
same,PRISMA enrichment of interactor (log2),[35],5.03
same,PRISMA enrichment of interactor (log2),[36],4.73
same,PRISMA enrichment of interactor (log2),[37],5.05
same,PRISMA enrichment of interactor (log2),[38],4.86

# Looked up one by one from the entries so far:
binder,measurement,setting,value
KDVFEELLSQWDAAL [RP11-140K17.3],PRISMA enrichment of interactor (log2),[24],5.39
same,PRISMA enrichment of interactor (log2),[20],4.74

# Reference: the supplement of paper PMC10032668
